Assay results from US7071334B2, “6-(2-chloro-6-fluoro-phenyl)-triazolopyrimidines” (priority 2001, dated 2006).
Some of these results come from one statement about several compounds together.

Test system: Alternaria solani
Test: Comparison Test 1: Fungicidal control of early blight on tomatoes
Type: in vivo
Settings: tomato plants treated with 250 ppm, inoculated next day, assessed after 6 days; untreated 100%

Row | SMILES | infection (% diseased leaf area)
1 | N#Cc1nc2ncnn2c(C2CCCCC2)c1-c1c(F)cccc1Cl [D] | at least 60%
2 | COc1nc2ncnn2c(C2CCCCC2)c1-c1c(F)cccc1Cl [C] | at least 60%
